Measurements published in paper PMC5739762.
Results are given in words; binding and its absence hold for the method and conditions named. In cells and extracts the contact can be indirect. Some binding calls cover weakened binding; strength is not graded here.

By UniProt entry, the sequences of proteins in these tests, tags left out.
UniProt Q00987: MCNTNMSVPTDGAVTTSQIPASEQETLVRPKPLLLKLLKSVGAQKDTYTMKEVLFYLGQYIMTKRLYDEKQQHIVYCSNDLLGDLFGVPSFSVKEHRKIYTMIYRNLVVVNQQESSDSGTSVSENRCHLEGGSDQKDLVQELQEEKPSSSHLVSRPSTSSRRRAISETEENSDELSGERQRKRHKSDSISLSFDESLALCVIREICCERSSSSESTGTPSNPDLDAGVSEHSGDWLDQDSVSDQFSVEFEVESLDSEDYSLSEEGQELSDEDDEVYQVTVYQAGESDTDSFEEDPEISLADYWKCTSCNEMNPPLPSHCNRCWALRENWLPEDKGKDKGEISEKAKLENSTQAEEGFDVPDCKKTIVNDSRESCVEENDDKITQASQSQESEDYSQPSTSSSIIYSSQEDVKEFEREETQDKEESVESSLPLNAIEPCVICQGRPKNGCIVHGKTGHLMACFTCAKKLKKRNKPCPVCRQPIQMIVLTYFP
UniProt Q06187: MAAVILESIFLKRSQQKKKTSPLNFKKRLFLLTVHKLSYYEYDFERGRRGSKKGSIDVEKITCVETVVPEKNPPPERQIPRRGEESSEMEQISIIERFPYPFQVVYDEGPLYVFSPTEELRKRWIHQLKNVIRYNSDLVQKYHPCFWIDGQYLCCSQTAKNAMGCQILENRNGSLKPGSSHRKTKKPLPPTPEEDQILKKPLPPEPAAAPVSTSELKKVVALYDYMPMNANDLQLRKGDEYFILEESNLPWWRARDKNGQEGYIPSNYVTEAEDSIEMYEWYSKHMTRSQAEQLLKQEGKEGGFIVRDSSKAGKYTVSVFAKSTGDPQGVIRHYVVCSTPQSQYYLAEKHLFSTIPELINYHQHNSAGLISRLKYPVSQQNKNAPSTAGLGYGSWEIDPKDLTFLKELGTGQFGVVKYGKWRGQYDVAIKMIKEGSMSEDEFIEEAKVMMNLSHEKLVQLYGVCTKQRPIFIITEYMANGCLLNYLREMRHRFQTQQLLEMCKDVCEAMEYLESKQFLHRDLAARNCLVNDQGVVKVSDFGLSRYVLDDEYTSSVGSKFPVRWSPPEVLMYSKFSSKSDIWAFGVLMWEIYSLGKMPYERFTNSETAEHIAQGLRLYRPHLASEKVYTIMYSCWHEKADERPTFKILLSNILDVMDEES

Target: FLAG-tagged MDM2 (UniProt Q00987)
Test: co-IP; lysates of HCT116 transfected with BTK and FLAG-MDM2; lysis buffer PBS, 50 mM NaCl, 1% NP-40, 1 mM PMSF, 4°C; IP with anti-FLAG or IgG overnight, protein A/G agarose; blots with BTK and FLAG antibodies

binding: binds
Substance: Bruton's Tyrosine Kinase (BTK) (from UniProt Q06187 1-659) (enzyme)
